No constants are given. Whether binding was seen depends on the method and setting. Binding seen in cells or lysates may run through a third protein. Some results given as binding are weak or reduced against the parent protein; the word gives no strength.
Columns and labels:
[1] = target: Estrogen receptor α (ERα), endogenous (human (endogenous in MCF7 and T47D)) (UniProt P03372); assay: co-IP; endogenous proteins in MCF7 and T47D lysates; IP lysis buffer 20 mM Tris-HCl pH 7.5, 150 mM NaCl, 1% NP-40; 16 h at 4 °C; Protein A/G magnetic beads; washes with 500 mM NaCl, 0.1% Tween-20; immunoblot
[2] = target: USP10 N‐terminal fragment (1–399 amino acids) (UniProt Q14694); assay: co-IP; indicated constructs transfected into HEK293T cells, 24 h; IP with anti-FLAG or anti-HA antibodies (magnetic beads); immunoblot

Chains of the proteins cited; added tags and fusions are not shown. Lines headed by an entry give the natural chain unless they say otherwise; changes in a name come on top. Residues count along the entry.
UniProt P03372: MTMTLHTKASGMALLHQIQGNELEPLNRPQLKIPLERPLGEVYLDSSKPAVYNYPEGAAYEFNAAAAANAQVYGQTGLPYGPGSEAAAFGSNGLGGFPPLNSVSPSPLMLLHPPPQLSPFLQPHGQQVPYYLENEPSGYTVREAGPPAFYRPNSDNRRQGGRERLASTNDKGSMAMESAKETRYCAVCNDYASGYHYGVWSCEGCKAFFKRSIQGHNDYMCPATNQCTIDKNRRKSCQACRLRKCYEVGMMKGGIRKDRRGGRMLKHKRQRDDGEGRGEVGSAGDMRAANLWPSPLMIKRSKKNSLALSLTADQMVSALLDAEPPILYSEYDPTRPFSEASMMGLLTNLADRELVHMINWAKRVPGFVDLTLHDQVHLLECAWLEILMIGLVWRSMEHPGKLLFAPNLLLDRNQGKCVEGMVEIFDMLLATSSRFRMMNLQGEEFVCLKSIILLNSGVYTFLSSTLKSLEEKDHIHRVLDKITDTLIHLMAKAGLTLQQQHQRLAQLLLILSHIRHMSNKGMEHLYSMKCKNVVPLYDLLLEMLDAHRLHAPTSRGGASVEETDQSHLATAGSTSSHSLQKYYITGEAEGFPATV
UniProt Q14694, residues 1-399: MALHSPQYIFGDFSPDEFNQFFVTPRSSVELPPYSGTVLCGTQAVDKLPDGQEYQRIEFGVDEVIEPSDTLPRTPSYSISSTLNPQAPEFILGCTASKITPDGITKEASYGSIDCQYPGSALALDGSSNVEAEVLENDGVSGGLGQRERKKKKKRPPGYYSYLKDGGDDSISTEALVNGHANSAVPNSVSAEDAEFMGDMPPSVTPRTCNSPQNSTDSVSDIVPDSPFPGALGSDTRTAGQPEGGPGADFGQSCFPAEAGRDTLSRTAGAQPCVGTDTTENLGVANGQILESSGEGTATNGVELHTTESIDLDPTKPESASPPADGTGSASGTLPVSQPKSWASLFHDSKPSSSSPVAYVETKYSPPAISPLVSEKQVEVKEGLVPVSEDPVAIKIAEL
UniProt P36405: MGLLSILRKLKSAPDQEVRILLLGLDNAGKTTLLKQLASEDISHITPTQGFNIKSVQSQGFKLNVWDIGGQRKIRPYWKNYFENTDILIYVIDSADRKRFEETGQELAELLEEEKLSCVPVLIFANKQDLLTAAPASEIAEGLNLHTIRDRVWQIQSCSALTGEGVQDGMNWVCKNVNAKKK

| binding [1] | binding [2] | Substance |
| --- | --- | --- |
| binds | – | ADP‐ribosylation factor‐like protein 3 (ARL3), endogenous (from UniProt P36405 1-182) |
| – | binds | ARL3, tagged construct expressed in HEK293T (from UniProt P36405 1-182) |

From publication PMC12713097, “ARL3 Enhances ERα Stability via USP10 Deubiquitination to Promote Endocrine Resistance and Drive Mitochondrial Metabolic Reprogramming in HR+ Breast Cancer” (Advanced Science, 2025)
